Reference: PubChem BioAssay AID493014 (National Center for Advancing Translational Sciences (NCATS), 2011)
This is one part of the list. Further columns of the screen follow, without active or inactive calls. The list favours compounds with an active or inconclusive main result. The note in brackets gives the kind of curve behind each potency; many fits are weak.

Test: qHTS Assay to Find Inhibitors of Chronic Active B-Cell Receptor Signaling
Conditions: ABC-DLBCL IkBa-CBG/CBR reporter, luminescence ratio (green luciferase fused to IkBa over red control in TMD8 lymphoma cells), 4 h
Method in brief: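 TMD8 ABC-DLBCL cells carrying doxycycline-inducible green luciferase fused to IkappaBalpha plus unfused red luciferase were exposed to compounds (up to 46 uM) for 4 hrs at 37C. Activity came from the overlap-corrected green/red luminescence ratio.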

[1] = measured here: CBR red luminescence, cell number
[2] = measured here: IkBa-CBG green luminescence

Cc1cc(SCC#N)n2nc(C)c(-c3ccc(Cl)cc3)c2n1
AC50 [1]: 0.58 µM [rising, full curve, poor fit]

CCCC(C(=O)NCc1ccco1)N(C(=O)CNS(=O)(=O)c1ccc(Cl)cc1)C1CCCC1 (stereo not drawn)
AC50 [1]: 20.6 µM [falling, single point]

Cc1ccc(S(=O)(=O)N2CCC(C(=O)OCC(=O)NCc3ccco3)CC2)cc1C
AC50 [1]: 29.1 µM [rising, partial curve, poor fit]

O=C(Oc1ccc(Cl)cc1)N1CCCCC1
AC50 [1]: 29.1 µM [rising, single point]

O=C(c1ccc(Br)cc1)c1cc([N+](=O)[O-])ccc1N1CCOCC1
AC50 [1]: 8.91 µM [rising, partial curve, poor fit] | AC50 [2]: 17.8 µM [falling, single point]

COc1ccccc1C(=O)Nc1ccc2[nH]ncc2c1
AC50 [1]: 11.2 µM [falling, single point]

Nn1c(Cc2cccc3ccccc23)nnc1SC1CCOC1=O (stereo not drawn)
AC50 [1]: 32.6 µM [rising, partial curve, poor fit]

O=C(Nc1ccccc1)N1CCSCC1
AC50 [1]: 14.1 µM [rising, single point]

CCN1CCCc2cc(CN(CCN3CCOCC3)C(=S)Nc3cc(F)cc(F)c3)ccc21
AC50 [1]: 35.5 µM [rising, single point]

COc1cc(C(=O)Oc2cc(N)n(S(=O)(=O)c3ccc(F)cc3)n2)cc(OC)c1OC
AC50 [1]: 12.6 µM [falling, single point]

COC(=O)c1ccc(NC(=O)c2cc3sccc3n2C)cc1
AC50 [1]: 0.708 µM [falling, full curve]

COc1ccc(/C=C/C(=O)c2ccc(OC)cc2OC)c(OC)c1
AC50 [1]: 7.94 µM [falling, partial curve, poor fit]

OCCN(CCO)c1nc(N2CCCCC2)c2nc(N(CCO)CCO)nc(N3CCCCC3)c2n1
AC50 [1]: 0.0206 µM [rising, full curve, poor fit]

COC(=O)c1c(NC(=O)C(C)(C)C)csc1C
AC50 [1]: 7.94 µM [rising, partial curve]

CCn1c(COc2ccc3c(c2)CCCC3)nnc1SCC(=O)Nc1ccc(C(=O)OC)cc1
AC50 [1]: 20.6 µM [rising, partial curve, poor fit]

CCN(CC)C(=O)COc1ccc(/C(C)=N/Nc2ncc(Cl)cc2Cl)cc1
AC50 [1]: 35.5 µM [falling, single point] | AC50 [2]: 31.6 µM [falling, single point]

N#Cc1ccc(-c2ccc(OCC(=O)NCCc3ccccc3)cc2)cc1
AC50 [1]: 0.146 µM [falling, full curve, poor fit]

O=c1cc(-c2ccsc2)oc2ccc(-c3ccc4cc[nH]c4c3)cc12
AC50 [1]: 29.1 µM [falling, single point]

COc1ccc(/C=C/C(=O)c2ccc(O)cc2)cc1COc1ccc(F)cc1
AC50 [1]: 22.4 µM [falling, single point]

CCn1cc(C(=O)N[C@H](C(=O)NCCCO)C(C)C)c(=O)c2cc3c(cc21)OCO3
AC50 [1]: 31.6 µM [rising, single point]

CC(C)Cc1nnc(NC(=O)c2cc3c(s2)CCC3)s1
AC50 [1]: 0.0891 µM [rising, full curve, poor fit]

Cc1cccc(OCC(=O)N/N=C/c2ccc3c(c2)OCO3)c1
AC50 [1]: 14.1 µM [falling, single point]

COc1cc(NC(=O)Cn2c(-c3ccccc3)cc(C(C)=O)c2C)cc(OC)c1
AC50 [1]: 0.708 µM [rising, full curve, poor fit]

CCN(CC)CCCNC(=O)c1cc2c(Cl)nc3ccccc3c2s1
AC50 [1]: 11.2 µM [falling, partial curve, poor fit] | AC50 [2]: 11.2 µM [rising, partial curve, poor fit]

CN(CCNC(=O)c1cc2c(-c3ccccc3F)nn(C)c2s1)C1CCCCC1
AC50 [1]: 35.5 µM [falling, single point]

CC1(C)CC(=O)C=C(c2ccc(F)cc2OCc2ccccc2)C1
AC50 [1]: 16.4 µM [rising, partial curve]

CC(CCCCC(=O)Nc1ccc(C(F)(F)F)cc1)NCCc1cnc[nH]1 (stereo not drawn)
AC50 [1]: 17.8 µM [falling, partial curve]

Cc1ccc(C(=O)C(C)N2C(=O)NC(C)(c3ccccc3)C2=O)cc1 (stereo not drawn)
AC50 [1]: 11.2 µM [rising, partial curve, poor fit]

COc1ccc(S(=O)(=O)N(C)C)cc1NC(=O)COC(=O)C1CC1
AC50 [1]: 23.1 µM [rising, single point]

O=C(COC(=O)c1cccc(Cl)c1Cl)NCc1cccs1
AC50 [1]: 25.9 µM [falling, partial curve, poor fit]

COc1ccc(-c2noc(-c3cccs3)n2)cc1OC
AC50 [1]: 5.01 µM [rising, partial curve, poor fit]

Cc1ccc2c(c1)N(C(=O)NC1CCCCC1)C(C)(C)CC2C (stereo not drawn)
AC50 [1]: 0.103 µM [rising, full curve, poor fit]

Cc1ccc([N+](=O)[O-])cc1-c1ccc(/C=N\n2nnnc2N)o1
AC50 [1]: 23.1 µM [rising, partial curve, poor fit]

COc1ccc(CNC(=O)C2CC(=O)N(C3CCCC3)C2)cc1 (stereo not drawn)
AC50 [1]: 0.126 µM [rising, full curve, poor fit]

Cc1cc(O)c(C(c2ccccc2)N2CCC(C)CC2)c(=O)n1Cc1ccco1 (stereo not drawn)
AC50 [1]: 22.4 µM [falling, partial curve, poor fit] | AC50 [2]: 14.1 µM [rising, single point]

CC(OC(=O)c1ccc(S(=O)(=O)NCc2ccco2)cc1)C(=O)Nc1ccccc1 (stereo not drawn)
AC50 [1]: 29.1 µM [rising, single point]

COc1cccc2c(=O)n(CC(=O)N3CCN(c4ccccc4)CC3)ccc12
AC50 [1]: 29.1 µM [rising, single point]

Cc1c(N=C2N=C(NC(=O)c3cccs3)c3ccccc32)c(=O)n(-c2ccccc2)n1C
AC50 [1]: 1.12 µM [rising, full curve, poor fit]

Cn1cc2ccc(N)cc2n1
AC50 [2]: 14.1 µM [rising, partial curve, poor fit]
